# Measured values reported in the supplement of paper PMC11637464.
# Counter-ions that a name gives are not always drawn. The list shows a part of the results. Single values are uncertain, as repeats are few or missing.
# Tested on: primary mouse Muller glia with Ascl1 overexpression
# Test: progenitor-like (ProL) cell count fold change vs Ascl1-only control (log2 fold change); higher = more progenitor-like cells
# Conditions: collection day: 2
# Procedure: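 Primary P11 mouse Muller glia carrying dox-inducible Ascl1 were treated with Tocriscreen Stem Cell Library compounds at 0.1, 1 or 10 uM together with doxycycline for 5 days, then profiled by sci-Plex hashing and sci-RNA-seq2. Cells were annotated by marker genes and cell-type counts per well were size-factor adjusted. Read-outs are the log2 fold change of Neuronal (NeuPre + bipolar) and ProL cell counts versus the Ascl1-only control wells of the same collection day, plus the raw number of recovered cells per well. There is one well per dose, and wells with fewer than 20 cells were discarded.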
SMILES,progenitor-like (log2) (0.1 µM),progenitor-like (log2) (1 µM),progenitor-like (log2) (10 µM)
N[C@@H]1C[C@H]1c1ccccc1 [Tranylcypromine hydrochloride],0.0317,0.366,0.341
Cc1sc2c(c1C)C(c1ccc(Cl)cc1)=N[C@@H](CC(N)=O)c1nnc(C)n1-2,0.316,0.462,-0.17
COc1ccc(N(C(=O)Oc2c(C)cccc2C)c2ccnc(Nc3ccc(N4CCN(C)CC4)cc3)n2)c(OC)c1,0,-0.322,–
